This passage reports binding signal results from article PMC7862700.

This is a selection; strong and weak results do not stand in their true shares. For some assays here: At the low end of the ranking the order means little. The list shows a part of the results. For some assays here: The source does not settle which construct or isoform was used.

What all share (experiment): DAPPL (digital affinity profiling via proximity ligation, sequencing)
Holding throughout (details): 10 mM Tris-HCl pH 7.5, 50 mM NaCl, 1 mM DTT, 4% glycerol, room temperature, 30 min; GST-TFs on glutathione beads, 16-mer random dsDNA library, 0.1% …; high values mean tight binding; double strand, one strand shown; scale: fold enrichment (6-mer frequency, TF over GST control)

One assay concerns the target T1, GABPA (UniProt Q06546).
T1 sequence: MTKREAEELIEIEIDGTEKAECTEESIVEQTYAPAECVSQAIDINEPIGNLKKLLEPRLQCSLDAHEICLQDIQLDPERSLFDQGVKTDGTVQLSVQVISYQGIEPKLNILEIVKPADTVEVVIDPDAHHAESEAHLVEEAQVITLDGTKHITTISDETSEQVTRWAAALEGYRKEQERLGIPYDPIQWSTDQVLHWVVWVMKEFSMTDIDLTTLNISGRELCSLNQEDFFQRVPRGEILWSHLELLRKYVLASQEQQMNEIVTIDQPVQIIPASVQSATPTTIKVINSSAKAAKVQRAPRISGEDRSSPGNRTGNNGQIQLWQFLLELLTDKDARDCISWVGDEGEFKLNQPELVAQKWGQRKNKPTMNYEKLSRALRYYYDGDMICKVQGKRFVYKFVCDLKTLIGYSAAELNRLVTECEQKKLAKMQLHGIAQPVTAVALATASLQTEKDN

The next assay addresses T2, ETS1 (UniProt P14921).
T2 sequence: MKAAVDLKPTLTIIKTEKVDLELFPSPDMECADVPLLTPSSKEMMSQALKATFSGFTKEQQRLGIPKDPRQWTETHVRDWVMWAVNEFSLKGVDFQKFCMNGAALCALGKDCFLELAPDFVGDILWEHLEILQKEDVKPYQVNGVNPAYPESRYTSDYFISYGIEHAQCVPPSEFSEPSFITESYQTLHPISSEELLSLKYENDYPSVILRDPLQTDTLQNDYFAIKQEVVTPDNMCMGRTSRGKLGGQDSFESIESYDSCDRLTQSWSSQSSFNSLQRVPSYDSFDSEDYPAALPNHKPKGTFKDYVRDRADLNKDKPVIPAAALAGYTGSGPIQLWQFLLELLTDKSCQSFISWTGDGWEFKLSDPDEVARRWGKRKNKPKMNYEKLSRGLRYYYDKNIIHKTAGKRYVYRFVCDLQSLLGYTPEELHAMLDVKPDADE

Another assay has as its target T3, SPDEF (UniProt O95238).
T3 sequence: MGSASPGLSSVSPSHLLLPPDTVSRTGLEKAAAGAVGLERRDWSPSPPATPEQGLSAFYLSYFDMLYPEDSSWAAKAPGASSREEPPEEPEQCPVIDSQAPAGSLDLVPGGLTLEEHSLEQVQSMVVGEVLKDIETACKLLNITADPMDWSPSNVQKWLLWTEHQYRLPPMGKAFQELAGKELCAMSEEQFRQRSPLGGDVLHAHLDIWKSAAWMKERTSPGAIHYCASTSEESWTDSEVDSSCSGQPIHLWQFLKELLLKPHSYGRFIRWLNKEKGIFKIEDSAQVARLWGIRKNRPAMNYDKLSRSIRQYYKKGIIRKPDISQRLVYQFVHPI

For the sequence GTGAAA, the binding signal in the assay with GABPA was found to be 0.762; with ETS1 it was 0.737; with SPDEF, 0.694.
Regarding GACGAA, the binding signal came out at 0.88 with GABPA, 0.857 in the assay with ETS1 and 0.864 with SPDEF.
Regarding GTCAAC, the binding signal worked out at 0.948 in the assay with GABPA, 0.979 in the assay with ETS1 and 0.865 with SPDEF.
As for AGGTGA, the figures for the binding signal with GABPA, in the assay with ETS1 and with SPDEF were 0.563, 0.54 and 0.54, respectively.
On to AGCAAG, for which the binding signal with GABPA turned out to be 0.98; with ETS1 it was 0.888; with SPDEF, 0.813.
In the case of CTGTGA, the binding signal with GABPA came to 0.505; in the assay with ETS1, 0.496; with SPDEF, 0.461.
On the same counts, the results for ATTGGA are 0.909, 0.882 and 0.86.
On to CGTGCG, for which the results for the binding signal with GABPA, in the assay with ETS1 and in the assay with SPDEF were 0.651, 0.706 and 0.567, respectively.
On the same counts, the results for CGCGGG are 0.774, 0.771 and 0.744.
On the same counts, the results for GCGGCG are 0.797, 0.758 and 0.639.
For the sequence GCTGGA, the binding signal with GABPA is 0.777; in the assay with ETS1, 0.817; with SPDEF it was 0.748.
For CGTGCC, in that order: 0.886, 0.876 and 0.838.
For GCACGG, in that order: 0.762, 0.785 and 0.825.
In the case of GACTCA, the binding signal with ETS1 is 0.883; with SPDEF, 0.865.
With GTGCAA, the binding signal with ETS1 is 0.813; with SPDEF it was 0.943.
Take GGGGGT: the figures for the binding signal in the assay with GABPA, with ETS1 and with SPDEF were 0.563, 0.566 and 0.501, respectively.
On the same counts, the results for AACAGT are 0.645, 0.692 and 0.668.
GGTGCC: the results for the binding signal with GABPA, with ETS1 and with SPDEF were 0.769, 0.787 and 0.756, respectively.
On to GAGCAG, for which the binding signal came to 0.669 with GABPA, 0.62 in the assay with ETS1 and 0.612 in the assay with SPDEF.
GGAGAT: the binding signal was found to be 0.298 with GABPA, 0.3 with ETS1 and 0.325 with SPDEF.
On to GTCTGC, for which the binding signal came out at 0.963 with ETS1 and 0.857 in the assay with SPDEF.
In the case of TGTGTA, the binding signal in the assay with GABPA was determined as 0.826; with ETS1 it was 0.94; with SPDEF it was 0.911.
For AGACCA, the binding signal stood at 0.62 with GABPA, 0.625 with ETS1 and 0.667 with SPDEF.
Turning to AGGACT, the binding signal in the assay with ETS1 was 0.912; with SPDEF it was 0.893.
With GCACCA, the binding signal with GABPA turned out to be 0.899; with ETS1 it was 0.828; with SPDEF it was 0.858.
As to GGCCAC, the binding signal stood at 0.971 in the assay with ETS1 and 0.918 with SPDEF.
Consider GACTGG, for which the binding signal is 0.722 in the assay with GABPA, 0.636 in the assay with ETS1 and 0.648 in the assay with SPDEF.
On to CGGACG, for which the binding signal in the assay with GABPA was 0.388; with ETS1 it was 0.436; in the assay with SPDEF it was 0.527.
As for AGACAA, the figures for the binding signal with GABPA, in the assay with ETS1 and in the assay with SPDEF were 0.813, 0.808 and 0.716, respectively.
For CAGAGA, the binding signal turned out to be 0.619 with GABPA, 0.587 with ETS1 and 0.609 with SPDEF.
As for GTGAGG, the binding signal was determined as 0.257 with GABPA, 0.245 with ETS1 and 0.229 in the assay with SPDEF.
AGGCCT: the binding signal came out at 0.92 with ETS1 and 0.861 with SPDEF.
Take CAGGTT: the binding signal with GABPA was determined as 0.669; with ETS1, 0.66; in the assay with SPDEF, 0.629.
For TCGGAC, in that order: 0.379, 0.358 and 0.357.
In the case of GAACGC, the results for the binding signal with GABPA, with ETS1 and with SPDEF were 0.775, 0.735 and 0.716, respectively.
Regarding CGGGTC, the binding signal was 0.577 with GABPA, 0.755 with ETS1 and 0.917 with SPDEF.
As for TCGCCA, the results for the binding signal with ETS1 and with SPDEF were 0.965 and 0.982, respectively.
Regarding GCGGCC, the binding signal worked out at 0.872 with GABPA, 0.77 with ETS1 and 0.727 with SPDEF.
Turning to ATCGTG, the binding signal was 0.418 with GABPA, 0.427 in the assay with ETS1 and 0.381 with SPDEF.
As to TGGGGG, the binding signal with GABPA turned out to be 0.761; with ETS1, 0.758; with SPDEF, 0.712.
On to AAAGGA, for which the binding signal was 0.876 with GABPA, 0.818 with ETS1 and 0.916 in the assay with SPDEF.
Regarding GGGCTG, the binding signal worked out at 0.929 with ETS1 and 0.906 with SPDEF.
GGGTGG: the binding signal with GABPA is 0.674; in the assay with ETS1 it was 0.845; with SPDEF, 0.699.
Take AGAACG: the values for the binding signal in the assay with GABPA, in the assay with ETS1 and in the assay with SPDEF were 0.462, 0.427 and 0.421, respectively.
With GTAGTC, the binding signal in the assay with GABPA is 0.71; in the assay with ETS1, 0.712; with SPDEF, 0.649.
CGCCGT: the binding signal with ETS1 was 0.932; in the assay with SPDEF, 0.948.
For GCAACG, in that order: 0.985 and 0.933.
For the sequence TCGGTA, the binding signal was 0.599 with GABPA, 0.569 in the assay with ETS1 and 0.562 in the assay with SPDEF.
Turning to CCAGAC, the binding signal with GABPA is 0.721; with ETS1 it was 0.671; in the assay with SPDEF it was 0.638.
